Data published in patent US6017533A (priority 1996, dated 2000).
Read-outs that look alike come from different tables or passages of the source. Part of at least one peptide drawing is inferred or uncertain, most often the ends.

Target: PACAP receptor in rat brain crude membrane
Test: Inhibition of specific binding of [125I]MAX and [125I]PACAP 27 to rat brain crude membrane

With `CC[C@H](C)[C@H](NC(=O)CNC(=O)[C@H](CC(=O)O)NC(=O)[C@H](CO)NC(=O)[C@@H](N)Cc1c[nH]cn1)C(=O)N[C@@H](Cc1ccccc1)C(=O)N[C@H](C(=O)N[C@@H](CC(=O)O)C(=O)N[C@@H](CO)C(=O)N[C@@H](Cc1ccc(O)cc1)C(=O)N[C@@H](CO)C(=O)N[C@@H](CCCNC(=N)N)C(=O)N[C@@H](Cc1ccc(O)cc1)C(=O)N[C@@H](CCCNC(=N)N)C(=O)N[C@@H](CCCCN)C(=O)N[C@@H](CCC(N)=O)C(=O)N[C@@H](CCSC)C(=O)N[C@@H](C)C(=O)N[C@H](C(=O)N[C@@H](CCCCN)C(=O)N[C@@H](CCCCN)C(=O)N[C@@H](Cc1ccc(O)cc1)C(=O)N[C@@H](CC(C)C)C(=O)N[C@@H](C)C(=O)N[C@@H](C)C(=O)N[C@H](C(=O)N[C@@H](CC(C)C)C(N)=O)C(C)C)C(C)C)[C@@H](C)O` [PACAP 27] the IC50 (radioligand [125I]MAX, 1 hour at 22° C., read-out: IC50, competition with [125I]MAX binding) was 2.16 ± 0.45 nM and the IC50 (radioligand [125I]PACAP 27, 1 hour at 22° C., read-out: IC50, competition with [125I]PACAP 27 binding) was 9.55 ± 0.75 nM.
